Source: patent US8349801B2 (priority 2006, dated 2013)

Assay: general procedure: Fmoc solid-phase peptide synthesis
Settings: RP-HPLC, TFA salt, P33_V exchanged to acetate salt

Sequence | final HPLC purity (oxidative folding step, one disulfide bridge) | final HPLC purity (whole synthesis)
SMCHRWSRAVLFPAAHRP [P33_dimer] (dimer via cysteine; listed as Homo sapiens) | 95% | 
SMCHRWSRAVLFPAAHRP [P33_mono] |  | 95%
